# Laboratory results: PubChem BioAssay AID1508588 (Peter MacCallum Cancer Centre, 2020)
# Test: 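Which gene losses make BRAF-mutant melanoma cells more responsive to vemurafenib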 (primary screen)
# Cell system: human WM266.4 melanoma cells (BRAF V600 mutant)
# Reagent: siRNA pool against human genes, 40 nM
# Duration: 96 h from transfection to read-out
# Treatment: vemurafenib 300 nM (about IC25), added 48 h after transfection, for 48 h; comparison arm got DMSO vehicle only
# Read-out: 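Ratios to non-targeting siRNA for cell gain, counted as DAPI nuclei after minus before drug and averaged over two replicates, and for absorbance-read medium lactate per cell; both binned into fold-change classes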
# Scale: cell gain with vemurafenib: higher = more cell gain than with non-targeting siRNA; lactate per cell with vemurafenib: higher = more lactate made per cell
# Active means: 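a knock-down counts as enhancing when its fold-change classes with vehicle and with vemurafenib, taken together, show a stronger drug effect on cell gain or lactate per cell; exact class pairs not stated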
# Meaning of the calls: active = enhances vemurafenib effect; inactive = no enhancement seen
# This is a random part of about 18,000 deposited reagents. 790 of all reagents (4.4%) count as active. 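Calls rest on a combination of fold-change classes in drug and vehicle arms, not all shown here.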
gene symbol,cell gain with vemurafenib,lactate per cell with vemurafenib,call
LY75 (lymphocyte antigen 75),0.56,1.91,inactive
HNRNPF (heterogeneous nuclear ribonucleoprotein F),0.18,0.45,active
LRRC8E (leucine rich repeat containing 8 VRAC subunit E),0.63,1.8,inactive
RFX5 (regulatory factor X5),-0.01,1.97,inactive
PHYHIP (phytanoyl-CoA 2-hydroxylase interacting protein),0.18,0.85,inactive
PRKAG3 (protein kinase AMP-activated non-catalytic subunit gamma 3),-0.04,3.62,inactive
GRIK4 (glutamate ionotropic receptor kainate type subunit 4),0.29,2.04,inactive
ARPC1A (actin related protein 2/3 complex subunit 1A),0.41,0.55,inactive
PALD1 (phosphatase domain containing paladin 1),0.67,0.55,inactive
ENTPD3 (ectonucleoside triphosphate diphosphohydrolase 3),0.43,1.36,inactive
"PSMD6 (proteasome 26S subunit, non-ATPase 6)",-0.06,1.77,inactive
CCL27 (C-C motif chemokine ligand 27),0.63,0.54,inactive
"DSTN (destrin, actin depolymerizing factor)",1.06,0.66,inactive
MRPL41 (mitochondrial ribosomal protein L41),0.31,2.02,inactive
CACNA1B (calcium voltage-gated channel subunit alpha1 B),0.47,1.2,inactive
"PALS2 (protein associated with LIN7 2, MAGUK p55 family member)",0.45,0.64,inactive
"SEC16B (SEC16 homolog B, endoplasmic reticulum export factor)",1.11,1.02,inactive
TUBB3 (tubulin beta 3 class III),0.03,1.5,inactive
GPR174 (G protein-coupled receptor 174),0.28,3.05,inactive
MT1X (metallothionein 1X),0.77,2.47,inactive
AIRIM (AFG2 interacting ribosome maturation factor),0.65,0.73,inactive
CXXC1 (CXXC finger protein 1),0.11,1.6,inactive
GJA5 (gap junction protein alpha 5),0.3,0.84,inactive
S100Z (S100 calcium binding protein Z),0.58,0.86,inactive
ABCG5 (ATP binding cassette subfamily G member 5),0.36,1.52,inactive
MFAP1 (microfibril associated protein 1),0.22,1.58,inactive
IFT70B (intraflagellar transport 70B),1.05,0.44,inactive
PPP1R14C (protein phosphatase 1 regulatory inhibitor subunit 14C),0.46,0.33,inactive
ZRANB2 (zinc finger RANBP2-type containing 2),0.65,1.43,inactive
GALR2 (galanin receptor 2),0.89,0.5,inactive
PACSIN3 (protein kinase C and casein kinase substrate in neurons 3),0.69,2.24,inactive
CNOT11 (CCR4-NOT transcription complex subunit 11),1.15,1.37,inactive
MRPL14 (mitochondrial ribosomal protein L14),0.69,0.88,inactive
DRC7 (dynein regulatory complex subunit 7),0.98,0.5,inactive

Called active, of those listed so far:
gene symbol,cell gain with vemurafenib,lactate per cell with vemurafenib,call
HNRNPF (heterogeneous nuclear ribonucleoprotein F),0.18,0.45,active
